Measurements reported in patent publication US12356990B2, “Pyridazinol compound, derivative thereof, preparation method therefor, herbicidal composition and use thereof” (QINGDAO KINGAGROOT CHEMICAL COMPOUND CO., LTD., priority 2019, dated 2025).
The name of at least one read-out is uncertain.

How the values were obtained:
Assay in all cases: Post-emergence weed control test (greenhouse, pot)
Assay type in all cases: in vivo
Conditions in all cases: 1200 g/ha, after 3 weeks, fresh weight inhibition rate
Descurainia sophia = system: Descurainia sophia
Sinapis arvensis = system: Sinapis arvensis
Capsella bursa-pastoris = system: Capsella bursa-pastoris

Cc1c(C(F)(F)F)nnc(-c2cccnc2Cl)c1O [Compound 112]
weed control effect, Descurainia sophia (activity level) (Descurainia sophia): 5 (Level 5: growth control rate is above 85%) | weed control effect, Sinapis arvensis (activity level) (Sinapis arvensis): 5 (Level 5: growth control rate is above 85%) | weed control effect, Capsella bursa-pastoris (activity level) (Capsella bursa-pastoris): 5 (Level 5: growth control rate is above 85%)

Nc1c(C(F)(F)F)nnc(-c2cnn(C(F)F)c2)c1O [Compound 59]
weed control effect, Descurainia sophia (activity level) (Descurainia sophia): 5 (Level 5: growth control rate is above 85%) | weed control effect, Sinapis arvensis (activity level) (Sinapis arvensis): 5 (Level 5: growth control rate is above 85%) | weed control effect, Capsella bursa-pastoris (activity level) (Capsella bursa-pastoris): 5 (Level 5: growth control rate is above 85%)

C=C(C)c1c(C(F)(F)F)nnc(-c2ccc(Cl)nc2)c1O [Compound 166]
weed control effect, Descurainia sophia (activity level) (Descurainia sophia): 5 (Level 5: growth control rate is above 85%) | weed control effect, Sinapis arvensis (activity level) (Sinapis arvensis): 5 (Level 5: growth control rate is above 85%) | weed control effect, Capsella bursa-pastoris (activity level) (Capsella bursa-pastoris): 5 (Level 5: growth control rate is above 85%)

C=C(C)c1c(C(F)(F)F)nnc(-c2ccc(F)nc2F)c1O [Compound 162]
weed control effect, Descurainia sophia (activity level) (Descurainia sophia): 5 (Level 5: growth control rate is above 85%) | weed control effect, Sinapis arvensis (activity level) (Sinapis arvensis): 5 (Level 5: growth control rate is above 85%) | weed control effect, Capsella bursa-pastoris (activity level) (Capsella bursa-pastoris): 5 (Level 5: growth control rate is above 85%)

Oc1c(-c2cnn(C(F)F)c2)nnc(C(F)(F)F)c1Cl [Compound 45]
weed control effect, Descurainia sophia (activity level) (Descurainia sophia): 5 (Level 5: growth control rate is above 85%) | weed control effect, Sinapis arvensis (activity level) (Sinapis arvensis): 5 (Level 5: growth control rate is above 85%) | weed control effect, Capsella bursa-pastoris (activity level) (Capsella bursa-pastoris): 5 (Level 5: growth control rate is above 85%)

CNc1c(C(F)(F)F)nnc(-c2ccc(C#N)cc2)c1O [Compound 17]
weed control effect, Descurainia sophia (activity level) (Descurainia sophia): 4 (Level 4: growth control rate is greater than or equal to 60% and less than 85%) | weed control effect, Sinapis arvensis (activity level) (Sinapis arvensis): 4 (Level 4: growth control rate is greater than or equal to 60% and less than 85%) | weed control effect, Capsella bursa-pastoris (activity level) (Capsella bursa-pastoris): 3 (Level 3: growth control rate is greater than or equal to 40% and less than 60%)

CCSc1c(C(F)(F)F)nnc(-c2ccc(F)cc2)c1O [Compound 138]
weed control effect, Descurainia sophia (activity level) (Descurainia sophia): 3 (Level 3: growth control rate is greater than or equal to 40% and less than 60%) | weed control effect, Sinapis arvensis (activity level) (Sinapis arvensis): 5 (Level 5: growth control rate is above 85%) | weed control effect, Capsella bursa-pastoris (activity level) (Capsella bursa-pastoris): 3 (Level 3: growth control rate is greater than or equal to 40% and less than 60%)

C=C(C)c1c(C(F)(F)F)nnc(-c2ccnc(F)c2)c1O [Compound 167]
weed control effect, Descurainia sophia (activity level) (Descurainia sophia): 5 (Level 5: growth control rate is above 85%) | weed control effect, Sinapis arvensis (activity level) (Sinapis arvensis): 5 (Level 5: growth control rate is above 85%) | weed control effect, Capsella bursa-pastoris (activity level) (Capsella bursa-pastoris): 5 (Level 5: growth control rate is above 85%)

Oc1c(-c2cc(F)c(F)c(F)c2)nnc(C(F)(F)F)c1C1CC1 [Compound 407]
weed control effect, Descurainia sophia (activity level) (Descurainia sophia): 5 (Level 5: growth control rate is above 85%) | weed control effect, Sinapis arvensis (activity level) (Sinapis arvensis): 5 (Level 5: growth control rate is above 85%) | weed control effect, Capsella bursa-pastoris (activity level) (Capsella bursa-pastoris): 5 (Level 5: growth control rate is above 85%)

Oc1c(-c2ccnc(F)c2)nnc(C(F)(F)F)c1C1CC1 [Compound 126]
weed control effect, Descurainia sophia (activity level) (Descurainia sophia): 5 (Level 5: growth control rate is above 85%) | weed control effect, Sinapis arvensis (activity level) (Sinapis arvensis): 5 (Level 5: growth control rate is above 85%) | weed control effect, Capsella bursa-pastoris (activity level) (Capsella bursa-pastoris): 5 (Level 5: growth control rate is above 85%)

Oc1c(-c2ccc(F)cc2)nnc(C(F)(F)F)c1C1CC1 [Compound 115]
weed control effect, Descurainia sophia (activity level) (Descurainia sophia): 5 (Level 5: growth control rate is above 85%) | weed control effect, Sinapis arvensis (activity level) (Sinapis arvensis): 5 (Level 5: growth control rate is above 85%) | weed control effect, Capsella bursa-pastoris (activity level) (Capsella bursa-pastoris): 5 (Level 5: growth control rate is above 85%)

C=C(C)c1c(C(F)(F)F)nnc(-c2ccc(F)cc2)c1O [Compound 156]
weed control effect, Descurainia sophia (activity level) (Descurainia sophia): 5 (Level 5: growth control rate is above 85%) | weed control effect, Sinapis arvensis (activity level) (Sinapis arvensis): 5 (Level 5: growth control rate is above 85%) | weed control effect, Capsella bursa-pastoris (activity level) (Capsella bursa-pastoris): 5 (Level 5: growth control rate is above 85%)

Oc1c(-c2ccc(F)cc2Cl)nnc(C(F)(F)F)c1C1CC1 [Compound 402]
weed control effect, Descurainia sophia (activity level) (Descurainia sophia): 5 (Level 5: growth control rate is above 85%) | weed control effect, Sinapis arvensis (activity level) (Sinapis arvensis): 5 (Level 5: growth control rate is above 85%) | weed control effect, Capsella bursa-pastoris (activity level) (Capsella bursa-pastoris): 5 (Level 5: growth control rate is above 85%)

Oc1c(-c2ccc(Cl)nc2F)nnc(C(F)(F)F)c1C1CC1 [Compound 136]
weed control effect, Descurainia sophia (activity level) (Descurainia sophia): 5 (Level 5: growth control rate is above 85%) | weed control effect, Sinapis arvensis (activity level) (Sinapis arvensis): 5 (Level 5: growth control rate is above 85%) | weed control effect, Capsella bursa-pastoris (activity level) (Capsella bursa-pastoris): 5 (Level 5: growth control rate is above 85%)

Cc1c(C(F)(F)F)nnc(-c2ccncc2)c1O [Compound 93]
weed control effect, Descurainia sophia (activity level) (Descurainia sophia): 5 (Level 5: growth control rate is above 85%) | weed control effect, Sinapis arvensis (activity level) (Sinapis arvensis): 5 (Level 5: growth control rate is above 85%) | weed control effect, Capsella bursa-pastoris (activity level) (Capsella bursa-pastoris): 5 (Level 5: growth control rate is above 85%)

C=C(C)c1c(C(F)(F)F)nnc(-c2cnn(C(F)F)c2)c1O [Compound 53]
weed control effect, Descurainia sophia (activity level) (Descurainia sophia): 5 (Level 5: growth control rate is above 85%) | weed control effect, Sinapis arvensis (activity level) (Sinapis arvensis): 5 (Level 5: growth control rate is above 85%) | weed control effect, Capsella bursa-pastoris (activity level) (Capsella bursa-pastoris): 5 (Level 5: growth control rate is above 85%)

Cc1cc(C#N)ccc1-c1nnc(C(F)(F)F)c(C2CC2)c1O [Compound 400]
weed control effect, Descurainia sophia (activity level) (Descurainia sophia): 5 (Level 5: growth control rate is above 85%) | weed control effect, Sinapis arvensis (activity level) (Sinapis arvensis): 5 (Level 5: growth control rate is above 85%) | weed control effect, Capsella bursa-pastoris (activity level) (Capsella bursa-pastoris): 5 (Level 5: growth control rate is above 85%)

C=C(C)c1c(C(F)(F)F)nnc(-c2ccc(Cl)cc2C(F)(F)F)c1O [Compound 403]
weed control effect, Descurainia sophia (activity level) (Descurainia sophia): 3 (Level 3: growth control rate is greater than or equal to 40% and less than 60%) | weed control effect, Sinapis arvensis (activity level) (Sinapis arvensis): 5 (Level 5: growth control rate is above 85%) | weed control effect, Capsella bursa-pastoris (activity level) (Capsella bursa-pastoris): 5 (Level 5: growth control rate is above 85%)

C=C(C)c1c(C(F)(F)F)nnc(-c2ccc(Br)nc2)c1O [Compound 165]
weed control effect, Descurainia sophia (activity level) (Descurainia sophia): 5 (Level 5: growth control rate is above 85%) | weed control effect, Sinapis arvensis (activity level) (Sinapis arvensis): 5 (Level 5: growth control rate is above 85%) | weed control effect, Capsella bursa-pastoris (activity level) (Capsella bursa-pastoris): 5 (Level 5: growth control rate is above 85%)

Cc1c(C(F)(F)F)nnc(-c2cc(Cl)cnc2F)c1O [Compound 114]
weed control effect, Descurainia sophia (activity level) (Descurainia sophia): 5 (Level 5: growth control rate is above 85%) | weed control effect, Sinapis arvensis (activity level) (Sinapis arvensis): 5 (Level 5: growth control rate is above 85%) | weed control effect, Capsella bursa-pastoris (activity level) (Capsella bursa-pastoris): 5 (Level 5: growth control rate is above 85%)

Cc1c(C(F)(F)F)nnc(-c2ccc(Cl)cc2)c1O [Compound 88]
weed control effect, Descurainia sophia (activity level) (Descurainia sophia): 5 (Level 5: growth control rate is above 85%) | weed control effect, Sinapis arvensis (activity level) (Sinapis arvensis): 5 (Level 5: growth control rate is above 85%) | weed control effect, Capsella bursa-pastoris (activity level) (Capsella bursa-pastoris): 5 (Level 5: growth control rate is above 85%)

Oc1c(-c2cccnc2F)nnc(C(F)(F)F)c1C1CC1 [Compound 132]
weed control effect, Descurainia sophia (activity level) (Descurainia sophia): 5 (Level 5: growth control rate is above 85%) | weed control effect, Sinapis arvensis (activity level) (Sinapis arvensis): 5 (Level 5: growth control rate is above 85%) | weed control effect, Capsella bursa-pastoris (activity level) (Capsella bursa-pastoris): 5 (Level 5: growth control rate is above 85%)

CC(C)OC(=O)Nc1c(C(F)(F)F)nnc(-c2cnn(C(F)F)c2)c1O [Compound 393]
weed control effect, Sinapis arvensis (activity level) (Sinapis arvensis): 3 (Level 3: growth control rate is greater than or equal to 40% and less than 60%)

C=C(C)c1c(C(F)(F)F)nnc(-c2cc(F)c(F)c(F)c2)c1O [Compound 406]
weed control effect, Sinapis arvensis (activity level) (Sinapis arvensis): 5 (Level 5: growth control rate is above 85%)

C=C(C)c1c(C(F)(F)F)nnc(-c2ccnc(Cl)c2)c1O [Compound 411]
weed control effect, Sinapis arvensis (activity level) (Sinapis arvensis): 5 (Level 5: growth control rate is above 85%) | weed control effect, Capsella bursa-pastoris (activity level) (Capsella bursa-pastoris): 3 (Level 3: growth control rate is greater than or equal to 40% and less than 60%)

CCS(=O)(=O)Nc1c(C(F)(F)F)nnc(-c2cnn(C(F)F)c2)c1O [Compound 395]
weed control effect, Sinapis arvensis (activity level) (Sinapis arvensis): 3 (Level 3: growth control rate is greater than or equal to 40% and less than 60%)

C=C(C)c1c(C(F)(F)F)nnc(-c2cncc(Cl)c2)c1O [Compound 412]
weed control effect, Sinapis arvensis (activity level) (Sinapis arvensis): 5 (Level 5: growth control rate is above 85%) | weed control effect, Capsella bursa-pastoris (activity level) (Capsella bursa-pastoris): 3 (Level 3: growth control rate is greater than or equal to 40% and less than 60%)

Oc1c(-c2cnn(C(F)F)c2)nnc(C(F)(F)F)c1C(F)(F)F [Compound 389]
weed control effect, Sinapis arvensis (activity level) (Sinapis arvensis): 5 (Level 5: growth control rate is above 85%) | weed control effect, Capsella bursa-pastoris (activity level) (Capsella bursa-pastoris): 3 (Level 3: growth control rate is greater than or equal to 40% and less than 60%)

CCSc1c(C(F)(F)F)nnc(-c2cnn(C(F)F)c2)c1O [Compound 70]
weed control effect, Sinapis arvensis (activity level) (Sinapis arvensis): 5 (Level 5: growth control rate is above 85%) | weed control effect, Capsella bursa-pastoris (activity level) (Capsella bursa-pastoris): 3 (Level 3: growth control rate is greater than or equal to 40% and less than 60%)

Oc1c(-c2ccc(F)nc2F)nnc(C(F)(F)F)c1Br [Compound 414]
weed control effect, Descurainia sophia (activity level) (Descurainia sophia): 3 (Level 3: growth control rate is greater than or equal to 40% and less than 60%) | weed control effect, Sinapis arvensis (activity level) (Sinapis arvensis): 5 (Level 5: growth control rate is above 85%)

CNc1c(C(F)(F)F)nnc(-c2cnn(C(F)F)c2)c1O [Compound 60]
weed control effect, Sinapis arvensis (activity level) (Sinapis arvensis): 3 (Level 3: growth control rate is greater than or equal to 40% and less than 60%)

Oc1c(-c2cnn(C(F)F)c2)nnc(C(F)(F)F)c1I [Compound 47]
weed control effect, Descurainia sophia (activity level) (Descurainia sophia): 5 (Level 5: growth control rate is above 85%) | weed control effect, Sinapis arvensis (activity level) (Sinapis arvensis): 5 (Level 5: growth control rate is above 85%)

Cc1c(C(F)(F)F)nnc(-c2ccc3c(c2)OC(F)(F)O3)c1O [Compound 408]
weed control effect, Sinapis arvensis (activity level) (Sinapis arvensis): 5 (Level 5: growth control rate is above 85%)
